{"source": "patent US20240307819A1", "about": "“ELECTROCHEMICAL TARGET SPECIES CAPTURE WITH A REDOX-ACTIVE AMINE” (Massachusetts Institute of Technology, priority 2021, published 2024)", "key": {"[1]": {"assay": "Electrochemical release of CO2 by constant-current oxidation in an H-cell (electron utilization)", "conditions": "0.2 M in 5 mL water, 1 M potassium nitrate, 50 mA for 62 min, full conversion", "experimental": "FIGS. 5A-5F are related to electrochemical release of CO2. FIG. 5A is a schematic of the experimental setup for CO2 release. […] The amount of released CO2 (curve A) and electron utilization (curve B) are shown versus electric charge.\nA bench-scale setup using an electrochemical H-cell was constructed and tested for the capture and release of CO2 (FIG. 5A). The system was equipped with an anion exchange membrane separating two 5 mL reaction chambers, carbon felt as a working electrode, and a stainless steel wire electrode for an arbitrary reaction in the counter chamber. […] Then, pure CO2 was bubbled into the solution for 10 min to complete the saturation of the electrochemically generated 1-Apyl radical dimer 3 solution. […] The electron utilization (εCO2) during CO2 release on oxidation represents the ratio between the moles of CO2 released and the moles of electrons transferred (equation 1): […]"}, "[2]": {"conditions": "benchmark MEA process; cited from earlier work"}}}
{"smiles": "N[n+]1ccccc1", "note": "[1-AP nitrate, 1-aminopyridinium]", "values": [{"measurement": "Faradaic efficiency of reduction to the radical", "setting": "[1]", "result": 53, "unit": "%"}]}
{"smiles": "NCCO", "note": "[MEA, monoethanolamine]", "values": [{"measurement": "energy required for the benchmark process", "setting": "[2]", "result": "9.56 to 19.1", "unit": "kcal/mol"}]}
